Paper PMC5703971
These are yes or no findings as the source states them, for the method shown. Binding seen in cells or lysates may run through a third protein. Some entries that bind do so weakly or less than the wild type.

Protein sequences, listed by entry. Tags and fused reporters are not part of them. Residues count along the entry.
UniProt Q9QUK6, residues 26-835: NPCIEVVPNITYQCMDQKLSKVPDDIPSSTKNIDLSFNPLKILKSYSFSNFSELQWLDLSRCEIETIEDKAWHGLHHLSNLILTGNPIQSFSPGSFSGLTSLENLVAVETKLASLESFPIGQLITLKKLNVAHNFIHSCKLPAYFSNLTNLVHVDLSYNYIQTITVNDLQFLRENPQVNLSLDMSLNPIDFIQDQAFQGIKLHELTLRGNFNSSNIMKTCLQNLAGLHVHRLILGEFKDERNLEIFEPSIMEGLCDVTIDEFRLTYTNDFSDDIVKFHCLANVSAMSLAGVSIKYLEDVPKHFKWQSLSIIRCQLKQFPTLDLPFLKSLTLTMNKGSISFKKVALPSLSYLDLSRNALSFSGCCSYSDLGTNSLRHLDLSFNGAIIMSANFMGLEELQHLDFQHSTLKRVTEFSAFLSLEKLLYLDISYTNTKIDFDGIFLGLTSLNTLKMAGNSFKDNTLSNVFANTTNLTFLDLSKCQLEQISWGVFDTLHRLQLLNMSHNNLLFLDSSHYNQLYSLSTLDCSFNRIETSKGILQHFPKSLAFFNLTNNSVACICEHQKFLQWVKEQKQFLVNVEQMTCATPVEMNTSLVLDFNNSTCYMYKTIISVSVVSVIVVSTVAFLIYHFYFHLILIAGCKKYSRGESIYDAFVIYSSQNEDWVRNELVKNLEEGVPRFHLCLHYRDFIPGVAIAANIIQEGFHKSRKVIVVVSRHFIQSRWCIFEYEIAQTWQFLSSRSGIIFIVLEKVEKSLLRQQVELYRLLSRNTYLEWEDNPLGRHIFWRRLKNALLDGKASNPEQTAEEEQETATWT

Molecular target: toll-like receptor 4 (mouse (endogenous in RAW264.7)) (UniProt Q9QUK6)
Test: co-IP; RAW264.7 cells pretreated with baicalein (0, 10, 25, 50 uM) for 2 h, then LPS (1 ug/ml) for 24 h; 500 ug cellular protein with 2 ug anti-TLR4 antibody 2 h at 4 C, protein A beads overnight at 4 C; immunoblot for MD-2 and TLR4

B1: myeloid differentiation protein-2 (protein, UniProt Q9JHF9 19-160)
chain: EKQQWFCNSSDAIISYSYCDHLKFPISISSEPCIRLRGTNGFVHVEFIPRGNLKYLYFNLFISVNSIELPKRKEVLCHGHDDDYSFCRALKGETVNTSIPFSFEGILFPKGHYRCVAEAIAGDTEEKLFCLNFTIIHRRDVN
With B1 the binding was “binds”.
